PubChem BioAssay AID1224828 – NIAID | 2016
Test: 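Regulators linking TLR4 signalling to p65 nuclear translocation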 (primary screen). Cells: mouse RAW264.7 G9 macrophage reporter cells (GFP-p65, Tnf promoter-mCherry). Reagent: siRNA pool against mouse genes, 100 nM. Timing: 2 days siRNA transfection, then 40 min LPS before fixation. Conditions: LPS (Salmonella minnesota R595) at 10 ng/ml. Read-out: 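Microscopy ratio of nuclear to perinuclear-ring GFP-p65 signal, scaled to the plate median; gene score is the average of two replicate robust z-scores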. Scale: p65 translocation robust z-score: higher = more nuclear NF-kappaB p65 after LPS than the plate median; nuclear/cytoplasmic p65 ratio: higher = more nuclear NF-kappaB p65. Hit rule: 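Called active when z exceeds 3.3 or falls under -1.56 (median of Tlr4 controls), giving activity score of at least 50; no calls for control wells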. Meaning of the calls: active = hit (p65 shift raised or lowered); inactive = no clear change.
The whole screen tested about 17,000 reagents; below is a part drawn at random. 762 of them (4.5%) count as active. 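Active calls include both raised and lowered p65 entry, mostly lowered; wells with fewer than 50 cells lack a z-score.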 Raw values are not corrected between plates. A number with no mark means an inactive call. The numbers tell different reagents against one gene apart.

| Target gene | reagent | p65 translocation robust z-score | nuclear/cytoplasmic p65 ratio, rep 1 | nuclear/cytoplasmic p65 ratio, rep 2 | low cell count flag |
| --- | --- | --- | --- | --- | --- |
| Glra2 | 1 | 1.44 | 1.53 | 1.65 | enough cells to score |
| Eps15 | 1 | 1.26 | 1.58 | 1.58 | enough cells to score |
| Asb16 | 1 | -1.06 | 1.34 | 1.43 | enough cells to score |
| Wtap | 1 | -0.23 | 1.39 | 1.27 | enough cells to score |
| Mgat4a | 1 | 1.07 | 1.55 | 1.51 | enough cells to score |
| Elf5 | 1 | 0.2 | 1.58 | 1.31 | enough cells to score |
| Slc25a23 | 1 | 0.53 | 1.43 | 1.12 | enough cells to score |
| Nsd3 | 1 | -0.39 | 1.5 | 1.51 | enough cells to score |
| Nt5dc3 | 1 | 1.06 | 1.52 | 1.72 | enough cells to score |
| Dcaf17 | 1 | -0.38 | 1.27 | 1.21 | enough cells to score |
| Or2m12 | 1 | 3 | 2.13 | 1.75 | enough cells to score |
| A530013C23Rik | 1 | -1.51 | 1.22 | 1.32 | enough cells to score |
| Actl6b | 1 | 0.59 | 1.82 | 1.6 | enough cells to score |
| Zfp612 | 1 | – | 1.2 | 1.17 | fewer than 50 cells per well; well left out of scoring |
| Atp10b | 1 | -0.26 | 1.44 | 1.45 | enough cells to score |
| Spag5 | 1 | – | 1.38 | 1.26 | fewer than 50 cells per well; well left out of scoring |
| Slc4a10 | 1 | – | 1.42 | 1.45 | fewer than 50 cells per well; well left out of scoring |
| Pklr | 1 | -1.29 | 1.5 | 1.2 | enough cells to score |
| Vmp1 | 1 | -1.61 (active) | 1.08 | 1.1 | enough cells to score |
| Nfatc2ip | 1 | -1.69 (active) | 1.48 | 1.36 | enough cells to score |
| Tafa5 | 1 | 0.67 | 1.84 | 1.47 | enough cells to score |
| Tmt1a | 1 | – | 1.14 | 1.11 | fewer than 50 cells per well; well left out of scoring |
| Pds5b | 1 | -0.64 | 1.52 | 1.52 | enough cells to score |
| Nfil3 | 1 | 1.55 | 1.73 | 1.54 | enough cells to score |
| Naif1 | 1 | 1.63 | 1.55 | 1.71 | enough cells to score |
| Foxb2 | 1 | 2.72 | 2.08 | 1.76 | enough cells to score |
| Reg3a | 1 | 0.04 | 1.41 | 1.24 | enough cells to score |
| Igdcc3 | 1 | 0.77 | 1.66 | 1.59 | enough cells to score |
| Ctsz | 1 | -0.14 | 1.51 | 1.32 | enough cells to score |
| Kdf1 | 1 | -1.5 | 1.13 | 1.29 | enough cells to score |
| Ap5s1 | 1 | – | 1.8 | 1.6 | fewer than 50 cells per well; well left out of scoring |
| 6430571L13Rik | 1 | 0.32 | 1.47 | 1.65 | enough cells to score |
| St6galnac6 | 1 | 0.19 | 1.41 | 1.29 | enough cells to score |
| Qtgal | 1 | 0.29 | 1.36 | 1.54 | enough cells to score |
| Nodal | 1 | -1.53 | 1.48 | 1.27 | enough cells to score |
| Tbp | 1 | -1.15 | 1.34 | 1.37 | enough cells to score |
| Or12d17 | 1 | 0.03 | 1.42 | 1.69 | enough cells to score |
| Smpd1 | 1 | -0.38 | 1.5 | 1.5 | enough cells to score |
| Or2t26 | 1 | 0.94 | 1.6 | 1.68 | enough cells to score |
| Tmem19 | 1 | 1.85 | 1.6 | 1.19 | enough cells to score |
| Tpi1 | 1 | -0.68 | 1.45 | 1.4 | enough cells to score |
| Kif26b | 1 | -1.3 | 1.39 | 1.35 | enough cells to score |
| Kif26b | 2 | – | 1.48 | 1.44 | fewer than 50 cells per well; well left out of scoring |
| 3110040N11Rik | 1 | – | 1.31 | 1.34 | fewer than 50 cells per well; well left out of scoring |
| Taf6 | 1 | -0.06 | 1.49 | 1.53 | enough cells to score |
| Opn4 | 1 | -1.96 (active) | 1.19 | 1.35 | enough cells to score |
| Orc6 | 1 | -0.99 | 1.34 | 1.26 | enough cells to score |
| Or11h6 | 1 | -0.98 | 1.31 | 1.14 | enough cells to score |
| Nans | 1 | -0.86 | 1.64 | 1.46 | enough cells to score |
| P4ha1 | 1 | 0.37 | 1.56 | 1.4 | enough cells to score |
| Cbx8 | 1 | -0.93 | 1.42 | 1.26 | enough cells to score |
| Epb41l2 | 1 | -0.3 | 1.61 | 1.37 | enough cells to score |
| Bnc1 | 1 | -0.57 | 1.57 | 1.49 | enough cells to score |
| Tshr | 1 | -0.57 | 1.39 | 1.55 | enough cells to score |
| Tor1aip1 | 1 | 1.87 | 1.97 | 1.85 | enough cells to score |
| Hoxb2 | 1 | 0.02 | 1.44 | 1.37 | enough cells to score |
| C1qtnf7 | 1 | 1.63 | 1.62 | 1.78 | enough cells to score |
| Spin1 | 1 | 1.2 | 1.58 | 1.36 | enough cells to score |
| Cpox | 1 | -0.31 | 1.5 | 1.28 | enough cells to score |
